Experimental data taken from PubChem BioAssay AID504834 (National Center for Advancing Translational Sciences (NCATS), 2011).
Hit rate of the full screen: of about 320,000 compounds, about 22,000 (6.9%) were called active. Inconclusive results, whose numbers are uncertain, are shown with a selection of clear calls. Calls come from the whole dose curve; as a rule, active = well fitted inhibition curve with a large enough effect; inconclusive = small, poorly fitted or top-dose-only effect, or another doubt; inactive = no such curve, though single readings can be large or run the other way. A potency beside an inconclusive call is a rough fit, not a confirmed value.
Potency is the fitted concentration of half-maximal effect.

Assay: Primary qHTS for delayed death inhibitors of the malarial parasite plastid, 96 hour incubation
Settings: P. falciparum luciferase reporter growth; series mostly up to 28.7 µM
How it was run: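 Two parasite generations (96 h, 37 C, 5% CO2) of compound exposure in infected erythrocytes (0.05% parasitemia, 2% hematocrit). Luciferase-reporter P. falciparum; decreased luminescence indicates inhibited growth, aimed at apicoplast-acting delayed death.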
In the case of `CN(C)c1cccc(C(=O)NNC(=O)CSc2ccccc2)c1`, the Potency is reported as “inactive”.
For `Cc1nc2cc(C(F)(F)F)ccc2n1CCNc1nc(-c2ccc([N+](=O)[O-])c(Cl)c2)cs1`, the Potency was inconclusive: 0.522 µM [inhibitor, full curve, poor fit].
In the case of `CS/C(=N\S(=O)(=O)c1cccs1)Nc1ccc(Cl)cc1`, the Potency is reported as inconclusive: 1.85 µM [inhibitor, single point].
With `COc1ccccc1N1CCN(/N=C/c2cccc(Cl)c2)CC1` the Potency was inconclusive: 18.5 µM [inhibitor, single point].
In the case of `Cc1nc2cc(NC(=O)c3ccc(N4C(=O)CCC4=O)cc3)ccc2s1`, the Potency is reported as “inactive”.
For `Cc1nc(SCC(=O)N2CCN(C(=O)c3ccco3)CC2)c2c(C)c(C)sc2n1`, the Potency was inconclusive: 2.33 µM [inhibitor, single point].
With `COc1cc(OC)c2c(C)c(Cl)c(=O)oc2c1` the Potency was active: 10.4 µM.
For `CCCc1nc(SCC(=O)N2CCCC2)c2c(=O)n(C)c(=O)n(C)c2n1`, the Potency was inconclusive: 11.7 µM [inhibitor, single point].
For `O=C(NCc1ccccc1)C1CCN(S(=O)(=O)N2CCOCC2)CC1`, the Potency was inconclusive: 18.5 µM [inhibitor, single point].
With `O=c1cc(NS(=O)(=O)c2ccccc2)nc(SCc2ccccc2Cl)[nH]1` the Potency was inconclusive: 11.7 µM [inhibitor, single point].
For `CCc1ccc(CC)c(S(=O)(=O)Nc2ccc(O)c(C(=O)O)c2)c1`, the Potency was inconclusive: 4.15 µM [inhibitor, single point].
For `COC(=O)CCCCC1SCC(NC(=O)c2ccccc2)C1=O` (stereo unspecified), the Potency was “inactive”.
In the case of `Nc1ccc(NC(=O)c2ccccc2)c2c1C(=O)c1ccccc1C2=O`, the Potency is reported as inconclusive: 0.233 µM [inhibitor, full curve, poor fit].
For `O=C(Cn1c(=O)oc2cc(S(=O)(=O)N3CCCCC3)ccc21)N1CCc2ccccc21`, the Potency was inconclusive: 18.5 µM [inhibitor, single point].
In the case of `CCc1c(C)nc(SCC(=O)Nc2nc(-c3ccc(OC)cc3)cs2)[nH]c1=O`, the Potency is reported as inconclusive: 6.57 µM [inhibitor, partial curve].
With `O=C(C(Cl)c1ccccc1)N1CCOCC1` (stereo unspecified) the Potency was inconclusive: 7.38 µM [inhibitor, partial curve, poor fit].
For `CCCCn1c(SCC(=O)NCc2ccco2)nnc1-c1ccoc1C`, the Potency was “inactive”.
For `Cc1ccc(S(=O)(=O)N2CCNC(=O)CC2)cc1`, the Potency was inconclusive: 1.85 µM [inhibitor, single point].
In the case of `COc1ccc(OC)c(S(=O)(=O)N2CCC(C(=O)Nc3ccccc3)CC2)c1`, the Potency is reported as inconclusive: 16.5 µM [inhibitor, partial curve, poor fit].
For `COc1ccc(/C=C/C(=O)Oc2ccc(C)cc2)cc1`, the Potency was inconclusive: 0.165 µM [inhibitor, full curve, poor fit].
With `CN(C)CCN(C(=O)CCS(=O)(=O)c1ccccc1)c1nc2cc3c(cc2s1)OCO3` the Potency was “inactive”.
With `COC(=O)c1ccccc1OC(=O)c1cc[n+]([O-])cc1` the Potency was inconclusive: 0.0026 µM [inhibitor, full curve, poor fit].
For `O=[N+]([O-])c1ccc(/C=N/NC(=S)Nc2ccccc2C(F)(F)F)o1`, the Potency was inconclusive: 10.4 µM [inhibitor, single point].
In the case of `O=c1n(Cc2ccccc2F)c2ccccc2n1Cc1ccccc1F`, the Potency is reported as inconclusive: 10.4 µM [inhibitor, single point].
For `Cc1cccc(N2CCN(S(=O)(=O)c3cccc4nonc34)CC2C)c1` (stereo unspecified), the Potency was “inactive”.
In the case of `CCOc1ccc(NC(=O)CN(C)C(=O)CCCn2c(=O)oc3ccccc32)cc1OCC`, the Potency is reported as inconclusive: 10.4 µM [inhibitor, single point].
In the case of `O=C(Nc1ccccc1-c1nnn(CC(=O)N2CCOCC2)n1)c1ccccc1F`, the Potency is reported as “inactive”.
With `CC1CCN(c2nc(-c3ccccc3)c(C#N)c(=O)[nH]2)CC1` the Potency was inconclusive: 18.5 µM [inhibitor, partial curve, poor fit].
With `Cc1csc(NC(=O)NCC2CCCC(CNC(=O)Nc3nc(C)cs3)C2)n1` (stereo unspecified) the Potency was inconclusive: 14.7 µM [inhibitor, partial curve, poor fit].
In the case of `CCNc1nc(NCC)nc(-n2nc(C)cc2C)n1`, the Potency is reported as active: 2.08 µM.
In the case of `O=C(CCl)NNc1cccc(Cl)n1`, the Potency is reported as inconclusive: 20.8 µM [inhibitor, partial curve, poor fit].
In the case of `CC[C@@H](C)C(NC(=O)OC(C)(C)C)c1cn([C@@H](Cc2ccc(O)cc2)C(=O)N2CCN(C(=O)OC(C)(C)C)CC2)nn1` (stereo partly specified), the Potency is reported as active: 8.28 µM.
For `O=C(NC1CCCCC1)/C(=N\O)c1ccccn1`, the Potency was “inactive”.
With `CON(C)S(=O)(=O)c1cccc(C(=O)NC2CCSc3ccccc32)c1` (stereo unspecified) the Potency was “inactive”.
For `COc1ccccc1C(=O)Nc1ccc(Oc2nnc(-c3ccc(C)cc3)c3ccccc23)cc1`, the Potency was inconclusive: 18.5 µM [inhibitor, partial curve, poor fit].
With `CCOc1ccc(C(=O)NCC(=O)NCCOc2ccc(C)cc2)cc1` the Potency was inconclusive: 18.5 µM [inhibitor, single point].
In the case of `O=C(NCCN1CCOCC1)C(=O)c1c[nH]c2ccccc12`, the Potency is reported as inconclusive: 14.7 µM [inhibitor, partial curve, poor fit].
With `ClCCOCOCCCl` the Potency was inconclusive: 16.5 µM [inhibitor, single point].
In the case of `C/C(=N\NC(=O)c1ccc(O)cc1O)c1cccnc1`, the Potency is reported as inconclusive: 16.5 µM [inhibitor, single point].
In the case of `CC(=O)N1CCc2cc(C(=O)CN3CCN(C(=O)c4ccco4)CC3)ccc21`, the Potency is reported as inconclusive: 9.28 µM [inhibitor, partial curve, poor fit].
For `Cc1cccc(NC(=O)c2ccc3c(c2)OCCO3)c1`, the Potency was inconclusive: 14.7 µM [inhibitor, single point].
In the case of `Cc1ccc(C2=C(CC(=O)O)C(=O)CC2)cc1`, the Potency is reported as active: 4.65 µM.
With `COC(=O)c1ccccc1OCCCOc1ccc(C)cc1OC` the Potency was “inactive”.
In the case of `CCc1ccccc1NC(=O)CSc1nnc(Cn2cnc3ccccc32)o1`, the Potency is reported as “inactive”.
With `CCOC(=O)[C@H]1[C@H]2COc3cc(OC)ccc3[C@@H]2N2C(=O)c3cc(OC)c(OC)cc3NC(=O)[C@@]12C` the Potency was inconclusive: 18.5 µM [inhibitor, single point].
In the case of `C[C@]12CC(O)C3C(CCC4=CC(=O)CC[C@@]43C)C1CCC2c1csc(-c2ccccc2)n1` (stereo partly specified), the Potency is reported as inconclusive: 5.86 µM [inhibitor, partial curve].
For `CC(C)C(NS(=O)(=O)c1cccc2nsnc12)C(=O)N1CCn2c1nc1ccccc12` (stereo unspecified), the Potency was inconclusive: 8.28 µM [inhibitor, partial curve, poor fit].
With `CC(C)(C)NC(=O)c1cc([N+](=O)[O-])ccc1N1CCCCC1` the Potency was inconclusive: 18.5 µM [inhibitor, single point].
With `O=C(CC12CC3CC(CC(C3)C1)C2)NC(Cc1ccccc1)C(=O)O` (stereo unspecified) the Potency was inconclusive: 0.329 µM [inhibitor, partial curve, poor fit].
In the case of `c1ccc(Oc2nc(NCc3ccco3)nc(NCc3ccco3)n2)cc1`, the Potency is reported as inconclusive: 4.65 µM [inhibitor, partial curve, poor fit].
In the case of `COc1cc(-c2nnc(SC/C=C/c3ccccc3)n2N)cc(OC)c1OC`, the Potency is reported as inconclusive: 18.5 µM [inhibitor, single point].
For `Cc1c(Cl)cccc1NC(=O)CC1SC(=NCC2CCCO2)NC1=O` (stereo unspecified), the Potency was inconclusive: 16.5 µM [inhibitor, single point].
With `CCCOc1ccc(NC(=O)C2CC(=O)N(C)C(=Nc3cccc(OC)c3)S2)cc1` (stereo unspecified) the Potency was inconclusive: 2.62 µM [inhibitor, full curve, poor fit].
In the case of `O=C(Nc1ccc2ccccc2c1)[C@@H]1C[C@H]1[C@@H](NP(=O)(c1ccccc1)c1ccccc1)c1ccccc1`, the Potency is reported as inconclusive: 14.7 µM [inhibitor, single point].
In the case of `CCOC(=O)c1[nH]c2ccc(F)cc2c1NC(=O)CN1CCc2cc(OC)c(OC)cc2C1`, the Potency is reported as inconclusive: 0.928 µM [inhibitor, partial curve, poor fit].
For `Cc1ccc(-c2nc3cnccn3c2Nc2ccc3c(c2)OCO3)o1`, the Potency was inconclusive: 11.7 µM [inhibitor, single point].
With `Cc1ccccc1S(=O)(=O)c1c(C)cc(C)n(C(C)C)c1=O` the Potency was inconclusive: 0.185 µM [inhibitor, full curve, poor fit].
For `O=C(CSc1ncnc2[nH]ncc12)Nc1nc(-c2ccc(F)c(F)c2)cs1`, the Potency was “inactive”.
In the case of `CCc1c(C(=O)NC2CCCc3ccccc32)[nH]c(C)c1C(C)=O` (stereo unspecified), the Potency is reported as inconclusive: 16.5 µM [inhibitor, single point].
With `O=C(c1ccc2ccccc2n1)N1CCN(c2ccccn2)CC1` the Potency was “inactive”.
With `CCOC(=O)C1=C(CS(=O)(=O)c2ccc(C)c(C)c2)NC(=O)NC1c1ccc(O)cc1` (stereo unspecified) the Potency was inconclusive: 13.1 µM [inhibitor, partial curve, poor fit].
For `O=C(c1cc(COc2ccc3ncccc3c2)on1)N1CCCCCC1`, the Potency was “inactive”.
For `O=S(=O)(NCc1ccccc1)c1ccc(S(=O)(=O)N(Cc2ccccn2)C2CCCC2)cc1`, the Potency was inconclusive: 9.28 µM [inhibitor, single point].
For `CC(=O)c1cccc(NC(=O)/C(=C\c2cccnc2)NC(=O)c2ccc(C)cc2)c1`, the Potency was inconclusive: 3.7 µM [inhibitor, partial curve, poor fit].
In the case of `Cc1cc2nc(/C=C/c3cccnc3)[nH]c2cc1C`, the Potency is reported as “inactive”.
For `CC(C)Oc1ccccc1C1CC(=O)Nc2c1c(=O)n(C)c(=O)n2C` (stereo unspecified), the Potency was inconclusive: 2.33 µM [inhibitor, partial curve, poor fit].
